Data as given in PubChem BioAssay AID652243 (Drosophila RNAi Screening Center, 2013)

Screen: 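Fly genes required for human androgen receptor driven transcription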 (primary screen)
Cells: Drosophila S2R+ cells
Reagents: long dsRNA against Drosophila genes
Duration: 72 h (48 h, then 24 h hormone)
Challenge: synthetic androgen R1881 at 10 nM for 24 h
Detection: 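Per-well raw luminescence of the androgen-driven firefly reporter and of the Renilla control, two replicates each, without normalisation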
Reading the numbers: firefly reporter light: higher = more light from androgen-responsive reporter; Renilla control light: higher = more constitutive control signal (cell number, transfection)
Rule for the call: 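Hit when the log firefly-to-Renilla ratio dropped or increased by a fixed fold versus the mean of GFP or LacZ controls across duplicate plates; lowering cut given as 1.5 and as 3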
Meaning of the calls: active = hit: reporter lowered or raised; inactive = no hit
In all, the deposit lists about 24,000 reagents; shown is a random part of those that have a named target and a result. In the full data, 246 (1%) got an active call. 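Plates not normalised; calls are printed but the firefly/Renilla ratio behind them is not deposited; fold cut for lowering reported inconsistently.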 The raw values are shown without normalisation. Names joined by + are all predicted targets of the reagent. Reagent sequences are not shown. Not given: the amount of reagent.

target gene	DRSC id	firefly reporter light, replicate 1	firefly reporter light, replicate 2	Renilla control light, replicate 1	Renilla control light, replicate 2	Call
CG13287	DRSC09961	4.19e5	3.93e5	2.85e6	3.52e6	inactive
CG13287	DRSC26934	3.78e5	3.34e5	6.67e5	4.84e5	inactive
CG34433	DRSC15077	2.73e5	2.61e5	2.24e6	2.55e6	inactive
HDAC1	DRSC08696	5.96e5	5.82e5	8.51e5	1.61e6	inactive
Lsp1alpha	DRSC20258	4.58e5	3.66e5	3.50e6	3.26e6	inactive
Lsp1alpha	DRSC25329	4.83e5	3.49e5	4.89e5	5.85e5	inactive
CG14174	DRSC10175	1.32e5	1.52e5	1.95e6	1.43e6	inactive
Or67a	DRSC11240	1.99e5	1.52e5	2.83e6	1.93e6	inactive
CG4631	DRSC02766	3.63e5	4.45e5	2.05e6	2.65e6	inactive
CG4631	DRSC22194	5.42e5	4.98e5	2.20e6	1.71e6	inactive
CG30026	DRSC05276	1.04e5	1.26e5	4.00e5	3.38e5	inactive
CG30026	DRSC29320	7.25e5	8.77e5	1.20e6	1.20e6	inactive
Pif1	DRSC00582	8.80e5	1.16e6	2.41e6	2.20e6	inactive
Mkp3	DRSC10084	78652	1.01e5	5.68e5	6.54e5	active
Mkp3	DRSC10085	3.26e5	2.44e5	2.60e6	2.12e6	inactive
FucTA	DRSC10733	2.20e5	1.69e5	2.02e6	1.74e6	inactive
CG15209	DRSC19655	2.58e5	2.70e5	3.86e6	3.96e6	inactive
dod	DRSC20577	1.77e5	1.61e5	6.79e5	4.01e5	inactive
dod	DRSC26403	4.40e5	4.15e5	9.32e5	5.68e5	inactive
parvin	DRSC19468	1.08e5	64744	7.07e5	2.65e5	inactive
parvin	DRSC28956	3.53e5	3.62e5	1.21e6	1.02e6	inactive
CG33642	DRSC38915	1.01e6	6.52e5	2.38e6	1.35e6	inactive
CG18304	DRSC02664	1.52e5	1.97e5	2.16e6	1.98e6	inactive
CG18304	DRSC28389	6.19e5	7.52e5	1.97e6	2.36e6	inactive
CG18304	DRSC39011	1.18e6	1.17e6	1.56e6	1.77e6	inactive
Smg6	DRSC16029	1.37e5	1.02e5	1.29e6	1.10e6	inactive
Smg6	DRSC27703	3.19e5	3.01e5	4.79e5	6.78e5	inactive
Oatp58Db	DRSC04364	2.96e5	3.28e5	1.85e6	1.83e6	inactive
Oatp58Db	DRSC24248	4.52e5	4.21e5	4.26e5	4.90e5	inactive
Oatp58Db	DRSC39039	6.23e5	7.62e5	1.56e6	2.11e6	inactive
CG31832	DRSC22067	4.92e5	4.74e5	2.81e6	1.60e6	inactive
CG31832	DRSC26012	3.51e5	3.87e5	7.67e5	8.07e5	inactive
UQCR-14L	DRSC15288	2.47e5	2.12e5	2.78e6	3.37e6	inactive
UQCR-14L	DRSC22425	3.90e5	7.51e5	9.71e5	1.67e6	inactive
UQCR-14L	DRSC25417	9.11e5	5.66e5	7.37e5	6.88e5	inactive
Kdm4A	DRSC06586	1.52e6	7.26e5	1.85e6	8.09e5	inactive
Kdm4A	DRSC29611	5.95e5	1.07e6	9.23e5	9.23e5	inactive
CG15580	DRSC12266	58260	82543	1.18e6	1.11e6	inactive
CG15580	DRSC24180	6.77e5	5.04e5	7.80e5	6.60e5	inactive
CG30087	DRSC21677	7.89e5	6.40e5	2.79e6	2.53e6	inactive
CG30087	DRSC27057	4.18e5	3.19e5	8.70e5	4.21e5	inactive
rau	DRSC03125	6.56e5	1.00e6	1.61e6	1.61e6	inactive
rau	DRSC29748	3.35e5	3.44e5	1.28e6	1.19e6	inactive
CG9288 + CG42375	DRSC39267					inactive
sgl	DRSC21431	6.50e5	6.71e5	3.00e6	2.73e6	inactive
sgl	DRSC29308	7.74e5	7.79e5	1.17e6	1.12e6	inactive
CG13705	DRSC08314	1.82e5	1.94e5	2.43e6	3.80e6	inactive
CG13705	DRSC22691	7.05e5	5.56e5	1.92e6	1.31e6	inactive
CG13705	DRSC25173	1.28e6	1.13e6	1.14e6	1.17e6	inactive
CG31862	DRSC01245	99678	1.14e5	2.40e5	3.17e5	inactive
CG14036	DRSC02361	1.54e5	1.20e5	1.16e6	9.84e5	inactive
Dad1	DRSC02263	2.31e5	1.50e5	1.73e6	9.83e5	inactive
FipoQ	DRSC15413	61063	72233	5.17e5	3.48e5	inactive
FipoQ	DRSC24515	6.46e5	6.34e5	5.51e5	5.60e5	inactive
CG15012	DRSC08465	8.45e5	7.33e5	9.80e5	1.36e6	inactive
wkd	DRSC15777	2.08e5	1.68e5	2.50e6	2.01e6	inactive
hth	DRSC16967	1.06e5	1.32e5	1.39e6	1.64e6	inactive
hth	DRSC24749	7.27e5	3.88e5	5.50e5	6.05e5	inactive
TBC1D23	DRSC00657	92311	1.35e5	8.60e5	7.85e5	inactive
TBC1D23	DRSC30084	7.10e5	6.94e5	1.09e6	1.11e6	inactive
ppk17	DRSC02252	1.68e5	1.35e5	2.07e6	1.81e6	inactive
Cib2	DRSC04535	3.65e5	2.40e5	2.21e6	1.80e6	inactive
Cib2	DRSC36873					inactive
CG1983	DRSC15410	1.84e5	2.90e5	2.70e6	3.61e6	inactive
Arr1	DRSC01867	1.05e5	1.57e5	1.41e6	2.13e6	inactive
CG11898	DRSC14432	5.59e5	5.44e5	1.97e6	1.16e6	inactive
CG11898	DRSC27906	4.78e5	4.61e5	1.57e6	1.34e6	inactive
Srp14	DRSC15797	2.18e5	2.79e5	2.25e6	2.94e6	inactive
kuk	DRSC15730	1.28e5	1.03e5	8.35e5	8.00e5	inactive
kuk	DRSC26235	2.90e5	2.35e5	6.95e5	6.38e5	inactive
CG13096	DRSC02198	1.16e5	2.02e5	1.57e6	1.53e6	inactive
CG6362	DRSC07413	71005	61478	1.42e6	1.42e6	inactive
CG6362	DRSC26135	4.48e5	3.54e5	8.06e5	7.62e5	inactive
Obp57c + Obp57b	DRSC21914	6.49e5	7.24e5	2.26e6	1.28e6	inactive
Obp57c + Obp57b	DRSC24245	4.46e5	3.24e5	4.73e5	6.24e5	inactive

A stretch from the list above:
target gene	DRSC id	firefly reporter light, replicate 1	firefly reporter light, replicate 2	Renilla control light, replicate 1	Renilla control light, replicate 2	Call
wkd	DRSC15777	2.08e5	1.68e5	2.50e6	2.01e6	inactive
hth	DRSC16967	1.06e5	1.32e5	1.39e6	1.64e6	inactive
hth	DRSC24749	7.27e5	3.88e5	5.50e5	6.05e5	inactive
TBC1D23	DRSC00657	92311	1.35e5	8.60e5	7.85e5	inactive
TBC1D23	DRSC30084	7.10e5	6.94e5	1.09e6	1.11e6	inactive
ppk17	DRSC02252	1.68e5	1.35e5	2.07e6	1.81e6	inactive
